Results taken from the supplement of paper PMC3334620.
Whole data set: some 33,000 sequences, median “E-score (-0.5 to 0.5)” near -8e-05, cut for the highest 2% near 0.23. This is one part of the list.

Biological target: T1, Nrg2 (UniProt P38082)
T1 sequence: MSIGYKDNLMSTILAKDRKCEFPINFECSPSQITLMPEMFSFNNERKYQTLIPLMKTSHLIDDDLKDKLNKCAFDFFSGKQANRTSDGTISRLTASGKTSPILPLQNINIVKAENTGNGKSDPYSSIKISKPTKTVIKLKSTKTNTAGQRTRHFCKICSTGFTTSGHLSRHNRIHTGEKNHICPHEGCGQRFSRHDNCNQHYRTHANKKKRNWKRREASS
Test: PBM E-score (8-mer binding enrichment) (E-score (-0.5 to 0.5)); higher = stronger / more preferred TF binding
Conditions: protein concentration: 100 nM; construct: GST-full length
Summary of the method: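 Using PURExpress in vitro transcription/translation, GST-tagged yeast transcription factors were made in full-length or DNA-binding-domain form. These were applied at about 100-200 nM to double-stranded universal all-10-mer Agilent arrays, and bound protein was detected with fluorescent anti-GST. Scans were normalised with masliner before the Universal PBM Analysis Suite assigned E-scores to ungapped eight-base words pooled with their reverse complements.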

Row | Sequence | PBM E-score
1 | TCCCACAA | 0.062
2 | CGGTAGTC | -0.197
3 | ACCAGGCG | -0.171
4 | GAAGTCTA | -0.109
5 | ATGCAAGA | 0.0997
6 | AGGATAAT | 0.0367
7 | AACATCTT | -0.209
8 | AGCATCGA | 0.0713
9 | TGTGCGAA | -0.0723
10 | CTGCCCGC | 0.214
11 | GACCTTTA | -0.0218
12 | GCACGGGA | -0.0549
13 | GAAGCGTA | 0.0412
14 | CGGTTATA | -0.0458
15 | AACTGGAT | 0.124
16 | AATCTATC | 0.0626
17 | ACTGAGGC | 0.0289
18 | CAGTGCCC | 0.0474
19 | AATACTCC | -0.148
20 | CTTATCCC | -0.119
21 | GAACTAAC | 0.0869
22 | CGTCGGGC | -0.203
23 | CGATAACC | 0.0568
24 | GCCTCTAA | -0.113
25 | CCTTTCCA | 0.00451

Row | Sequence | PBM E-score
26 | ATCCATCA | 0.092
27 | GGTCAGAC | -0.087
28 | ATTTTGTC | 0.0375
29 | GGCGAGAC | -0.0299
30 | AAGTTATT | 0.135
31 | CAGTCGAA | -0.0564
32 | GATCTGAA | -0.0945
33 | GGCCATCA | -0.0252
34 | ACCTTCAT | 0.0652
35 | ACGCTAAA | -0.0161
36 | CCTAGGAA | -0.0506
37 | ATAAAGTG | 0.123
38 | CTGAAGCC | -0.22
39 | AATGGAAT | 0.241
40 | CCTTTACG | 0.0945
41 | GATGTCTA | -0.156
42 | CAGTACGC | 0.102
43 | CTGACTCA | -0.112
44 | ATAGTTTC | -0.0142
45 | ACTAGATA | 0.15
46 | CAATGTGG | 0.0785
47 | CTTCATTA | 0.164
48 | TAGCTTCA | 0.0524
49 | CGACATGA | 0.0175
50 | GGACCAAC | -0.0462

Row | Sequence | PBM E-score
51 | AGCTGACG | -0.0553
52 | ATATTCTA | 0.099
53 | AAATGGGC | -0.0283
54 | CGAGGTAC | -0.162
55 | TAGTGATA | 0.00245
56 | CTACTTCC | -0.00085
57 | CATATGTA | 0.0964
58 | CTGTCCTC | -0.0826
59 | ACGCTACG | -0.112
60 | GACGTAGC | -0.192
61 | CGTAAACA | 0.187
62 | GTATGTGA | -0.167
63 | GTCAGGTA | -0.118
64 | ATAGAGCA | 0.148
65 | ACACCCAG | -0.149
66 | TCCCTTCA | -0.0593
67 | AACATCGG | -0.137
68 | CTATCCAA | -0.189
69 | AATAAGGG | 0.162
70 | AGCATCTA | -0.0796
71 | GGCACCTA | -0.035
72 | CACATCGG | -0.142
73 | AGTCGAGC | -0.156
74 | AGTAATTC | 0.117
75 | AAACATTG | -0.0317

Row | Sequence | PBM E-score
76 | AGAGAATA | 0.174
77 | GCAGCCTA | -0.17
78 | GTGCATTA | 0.126
79 | TGTATACA | 0.18
80 | CGAATCCA | 0.0739
81 | ATTTAAGC | 0.0971
82 | ATGAAGCA | -0.00828
83 | ACTTTGAC | -0.0936
84 | AACCCAAC | 0.113
85 | ACTAGAAA | -0.105
86 | GATTCCTA | 0.101
87 | TAGTCCCA | -0.0666
88 | CATTAGCG | 0.0287
89 | AGCGCATG | -0.0295
90 | AGAGATGA | 0.00238
91 | ATGCTCAG | 0.0987
92 | AGCAGAAA | 0.0272
93 | GTTCATGA | 0.222
94 | CTCAATAC | 0.131
95 | CATCAACC | 0.0872
96 | CATTTTGC | 0.116
97 | GGTCAACA | 0.112
98 | AGGGATAC | 0.115
99 | AACCAGCG | 0.0992
100 | CCTTTTCC | -0.0827

An excerpt of these results, as labelled records.
CGAATCCA
  PBM E-score = 0.0739
AGCAGAAA
  PBM E-score = 0.0272
CTCAATAC
  PBM E-score = 0.131

Next results

Row | Sequence | PBM E-score
101 | GTTGCTGA | 0.0921
102 | ACAAACAC | 0.144
103 | AAACGAAC | 0.119
104 | CGCTACCA | -0.0584
105 | GGAGATGA | 0.0613
106 | TACGAGCA | -0.201
107 | GGTGATGA | 0.155
108 | CAACACCA | 0.00927
109 | CAATGAGC | 0.102
110 | AAGTCATT | -0.0544
111 | AGAGGTAG | -0.09
112 | TATAAAAA | 0.164
113 | ACCGCTAC | -0.201
114 | AGTCGCCC | -0.148
115 | CGAGCCCA | 0.0239
116 | CGGCGTCC | -0.0357
117 | AGTAGTTA | 0.0579
118 | GTAAAACA | 0.0875
119 | CTCGAGAA | -0.069
120 | ATGCTAGG | -0.0599
121 | CGCTATGA | 0.11
122 | AGTCGGAT | 0.139
123 | CGGCATCA | -0.144
124 | GCTGGTAA | -0.145
125 | ATAAGGAT | 0.15

Row | Sequence | PBM E-score
126 | CGTAATGA | -0.038
127 | CTTGAAGA | -0.153
128 | ACAGCTTA | 0.0742
129 | ACTATACA | 0.0287
130 | TAATATGA | 0.0376
131 | CGAGGGTA | 0.0487
132 | TGATCCAA | 0.197
133 | AAGTGGCC | 0.0419
134 | ATTGCGTA | 0.145
135 | ATAGCTAT | -0.047
136 | CATCCGCG | 0.0619
137 | AATGACGT | -0.0446
138 | AAGTACTA | 0.13
139 | GTCTGACA | 0.0221
140 | ACGCGTCA | 0.0474
141 | GAATCCGC | -0.0144
142 | ACCCAGGG | 0.0967
143 | TAACATCA | 0.043
144 | CCGACCGC | -0.0719
145 | TAGGACGA | -0.122
146 | AGACCGTG | -0.0909
147 | ACGTGAGC | -0.0241
148 | AATCTACT | 0.117
149 | GCATCGAA | -0.0124
150 | GCATCACA | -0.0237

Row | Sequence | PBM E-score
151 | GTCTTGCA | 0.0101
152 | AGCTCGCC | 0.108
153 | ATTCGTGG | 0.133
154 | CTGCGGGA | -0.122
155 | GCCTACAC | -0.16
156 | CGAAACAG | 0.0953
157 | TGCGTGAA | -0.0489
158 | AAGGGGTA | -0.00105
159 | AACACCGA | -0.0363
160 | GCTACCAC | -0.164
161 | AGGTGCAT | -0.0173
162 | CAGCTGTC | 0.218
163 | AGACATGC | -0.289
164 | AACTCTCC | -0.0395
165 | AAACTCAT | 0.108
166 | AGCCACAC | 0.00029
167 | CTGATACA | -0.0801
168 | CGACTACG | -0.152
169 | CGCAGATC | -0.0771
170 | CGAGTCAA | -0.168
171 | TAAACTCA | 0.117
172 | CGGCGCCG | 0.25
173 | AAGCCTAA | -0.0846
174 | ATGCATGA | 0.0186
175 | CTAGACTC | -0.296

Row | Sequence | PBM E-score
176 | CAATTGTG | 0.124
177 | AAGTCTCC | -0.279
178 | CATGAGCA | -0.0345
179 | ATACCGTC | 0.112
180 | CAATTGAA | -0.0796
181 | GTTATGAA | 0.0794
182 | ACGTGCAG | 0.0146
183 | CCGTTGCA | -0.0568
184 | CGCTGAAG | -0.109
185 | ACCTACCG | -0.0788
186 | GAGTCATC | -0.00226
187 | AACTCCTT | 0.00645
188 | CTGGATGC | -0.0825
189 | GCCACCCA | -0.0959
190 | ATCAATTG | 0.15
191 | CTCTTTGA | -0.118
192 | ACCTCGCG | 0.116
193 | ATGAAGGA | 0.113
194 | GACAACGC | -0.0597
195 | AAGAATCG | 0.0744
196 | CCTGATGA | 0.165
197 | AGCGTCAG | -0.0467
198 | ACTTCGTA | -0.0963
199 | ACTTACCC | 0.0108
200 | TAAGCCGA | 0.072

Six entries drawn at random from those above:
Row | Sequence | PBM E-score
178 | CATGAGCA | -0.0345
199 | ACTTACCC | 0.0108
189 | GCCACCCA | -0.0959
179 | ATACCGTC | 0.112
183 | CCGTTGCA | -0.0568
195 | AAGAATCG | 0.0744

More entries follow:

Row | Sequence | PBM E-score
201 | AAGTGAGC | -0.0445
202 | ACGACCTG | -0.231
203 | CCCACACA | 0.037
204 | GGGGATGA | 0.067
205 | ACTTCTGA | 0.148
206 | CAAACAAC | 0.14
207 | ATAAACCC | 0.307
208 | GTAAGCTA | 0.184
209 | ACTACCTC | -0.0255
210 | CACAAAAA | 0.131
211 | CACTAGCC | 0.0235
212 | ATGTGCAA | -0.00357
213 | ATATGAAG | -0.0307
214 | GCTGGTTA | 0.00215
215 | CATACCAG | -0.0622
216 | ATGTCGCC | -0.0301
217 | AAAGTTAG | 0.226
218 | TAAGTAAA | -0.00741
219 | AGGAAATG | 0.00239

A different layout for some results above:
Row	Sequence	PBM E-score
27	GGTCAGAC	-0.087
90	AGAGATGA	0.00238
131	CGAGGGTA	0.0487
186	GAGTCATC	-0.00226
196	CCTGATGA	0.165
